No constants are given. Whether binding was seen depends on the method and setting. Binding seen in cells or lysates may run through a third protein. Here binding means that the protein was enriched with, or labelled near, the bait; the list need not be complete.
Target: Serine/arginine-rich splicing factor 10 (SRSF10) (human (endogenous in Hep3B and HCCLM3)) (UniProt O75494)
Test: affinity purification with mass spectrometry; SILAC; Hep3B shScramble (heavy) against shSRSF10 (light) lysates with nuclease; IP with two commercial anti-SRSF10 antibodies on Protein G Dynabeads, 4 h at 4 °C; cut-off H/L ratio >1.7

Protein sequences, listed by entry. Tags and fused reporters are not part of them.
UniProt O75494: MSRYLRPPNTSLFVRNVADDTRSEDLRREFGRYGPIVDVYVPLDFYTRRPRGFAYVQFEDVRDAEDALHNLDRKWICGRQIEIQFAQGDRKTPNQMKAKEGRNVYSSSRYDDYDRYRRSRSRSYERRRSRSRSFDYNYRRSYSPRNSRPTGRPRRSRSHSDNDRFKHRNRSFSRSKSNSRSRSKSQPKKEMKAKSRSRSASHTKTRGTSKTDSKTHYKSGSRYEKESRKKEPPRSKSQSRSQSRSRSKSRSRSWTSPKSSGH
UniProt Q15717: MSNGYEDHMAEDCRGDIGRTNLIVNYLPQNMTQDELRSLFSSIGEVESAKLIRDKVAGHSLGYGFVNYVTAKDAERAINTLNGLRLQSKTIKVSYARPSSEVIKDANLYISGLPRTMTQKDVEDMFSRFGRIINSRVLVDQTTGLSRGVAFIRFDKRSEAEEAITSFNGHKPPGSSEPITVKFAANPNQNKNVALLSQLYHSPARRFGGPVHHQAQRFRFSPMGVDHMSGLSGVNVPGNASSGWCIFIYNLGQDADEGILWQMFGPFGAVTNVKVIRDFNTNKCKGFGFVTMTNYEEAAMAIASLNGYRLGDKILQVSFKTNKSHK
UniProt P61326: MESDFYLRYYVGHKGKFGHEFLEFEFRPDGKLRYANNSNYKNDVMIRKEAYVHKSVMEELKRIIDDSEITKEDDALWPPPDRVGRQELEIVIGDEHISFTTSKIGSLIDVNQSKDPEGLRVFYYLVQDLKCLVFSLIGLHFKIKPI
UniProt Q96A72: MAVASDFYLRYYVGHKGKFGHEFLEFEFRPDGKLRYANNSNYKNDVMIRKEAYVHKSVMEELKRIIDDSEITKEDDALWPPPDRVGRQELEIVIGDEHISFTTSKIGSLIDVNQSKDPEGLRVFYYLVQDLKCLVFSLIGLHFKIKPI
UniProt P11940: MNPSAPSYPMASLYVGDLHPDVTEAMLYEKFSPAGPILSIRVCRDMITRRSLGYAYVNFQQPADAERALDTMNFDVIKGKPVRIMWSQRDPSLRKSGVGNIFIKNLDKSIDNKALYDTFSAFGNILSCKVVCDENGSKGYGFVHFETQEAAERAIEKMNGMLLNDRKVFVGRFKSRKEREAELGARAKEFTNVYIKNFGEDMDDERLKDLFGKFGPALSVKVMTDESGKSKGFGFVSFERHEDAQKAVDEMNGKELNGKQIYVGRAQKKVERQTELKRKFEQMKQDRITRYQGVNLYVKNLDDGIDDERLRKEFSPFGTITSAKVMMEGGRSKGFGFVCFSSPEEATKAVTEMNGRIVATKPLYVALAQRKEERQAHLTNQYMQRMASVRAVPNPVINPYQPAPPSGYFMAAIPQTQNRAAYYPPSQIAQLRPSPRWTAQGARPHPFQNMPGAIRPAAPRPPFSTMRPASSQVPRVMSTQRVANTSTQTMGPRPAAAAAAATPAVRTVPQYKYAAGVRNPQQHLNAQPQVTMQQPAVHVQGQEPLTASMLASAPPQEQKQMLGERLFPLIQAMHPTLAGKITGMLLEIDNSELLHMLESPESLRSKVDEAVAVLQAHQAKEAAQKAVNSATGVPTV

Row | binding | Substance
1 | binds | ELAVL1 (from UniProt Q15717 1-326)
2 | binds | MAGOH (from UniProt P61326 1-146)
3 | binds | MAGOHB (from UniProt Q96A72 1-148)
4 | binds | PABPC1 (from UniProt P11940 1-636)

From PMC8927159
